Some of the results follow.
Target: OsWRKY34 (Oryza sativa, UniProt Q0JBA9 1-250)
Experiment: protein-binding microarray (RPBM); PBS, 2% BSA, 51.3 ng/ul salmon testes DNA, 50 uM zinc acetate, 200 nM TF, 25 C, 1 h; high values mean tight binding
Conditions: protein: recombinant; tags: N-terminal polyhistidine and DsRed monomer fusion (pET32a); label: CyDye5-dUTP incorporated in the synthesized complementary strand; 3' TTTTT single-stranded linker to array surface; dsDNA, one strand shown
Procedure, shortened: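 The binding signal for each feature is its fluorescence intensity in arbitrary units. An Axon 4000B scanner was used to read a custom Agilent array that had been made double-stranded with Cy5-dUTP primer extension, blocked with 2% BSA, incubated at 25 °C for 1 h with 200 nM protein in PBS, 2% BSA, salmon testes DNA and 50 µM zinc acetate, and washed. The protein was an N-terminal polyhistidine–DsRed transcription factor fusion from E. coli BL21-CodonPlus, purified on Ni–NTA.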

Sequences of proteins named here, by UniProt entry; tags and fusion partners are left off.
UniProt Q0JBA9, entry or part of it: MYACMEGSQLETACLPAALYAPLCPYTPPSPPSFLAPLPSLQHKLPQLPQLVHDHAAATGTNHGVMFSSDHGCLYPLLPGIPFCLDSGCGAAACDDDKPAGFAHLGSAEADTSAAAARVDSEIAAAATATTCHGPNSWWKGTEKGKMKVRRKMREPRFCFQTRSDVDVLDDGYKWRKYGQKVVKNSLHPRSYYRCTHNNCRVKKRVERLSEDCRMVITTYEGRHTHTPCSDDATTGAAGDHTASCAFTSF

| Sequence | binding signal |
| --- | --- |
| CTGTCTCGTGTCTGGGCTGGTGCGACCAACTGGTTCAAAACGGAGTCACCTAGTGCAG | 8210 fluorescence intensity (a.u.) |
| AAACCACACCATCAAATTCTTGCTCAATTTGTCAAATACTCGGAGTCACCTAGTGCAG | 8300 fluorescence intensity (a.u.) |
| ACACCACCTTAGTAGCTTACCGGCACAATAAGCATGCTCTCGGAGTCACCTAGTGCAG | 9990 fluorescence intensity (a.u.) |
| CCGCCCACCAAAACCCTCGCCGCGGCCTCCGCCGCCGCGGCGGAGTCACCTAGTGCAG | 8240 fluorescence intensity (a.u.) |
| TTGCTGCCTCTCTCCCTACTCCTATCGCTGTTCATGTTGTCGGAGTCACCTAGTGCAG | 9480 fluorescence intensity (a.u.) |
| CCCTACTCTGTACTTAATCTTCAATAAATTTGTGTCCTTGCGGAGTCACCTAGTGCAG | 8390 fluorescence intensity (a.u.) |
| GAGGGGTTTCCGGATTTATGTGTTGAAATTGTTTTTTGTTCGGAGTCACCTAGTGCAG | 8810 fluorescence intensity (a.u.) |
| AGCCTGGTGCCGTGATGTGCTGACGATGCTCCATGACGACCGGAGTCACCTAGTGCAG | 8220 fluorescence intensity (a.u.) |
| CTGACCCCACAGTGATACTCAGCTTCTATTTGCATTGCCGCGGAGTCACCTAGTGCAG | 8290 fluorescence intensity (a.u.) |
| TAATTTCAATCCTAGTTATATTCCTGGACAAGTGCATGTTCGGAGTCACCTAGTGCAG | 8710 fluorescence intensity (a.u.) |
| TCGCGCGCGGCACACCTTCACGCTGCACCAATCCGCATCGCGGAGTCACCTAGTGCAG | 8210 fluorescence intensity (a.u.) |
| GTGCTAGACTTTCTTTAGAAATTTTGAGGTCTTTTTTATACGGAGTCACCTAGTGCAG | 9680 fluorescence intensity (a.u.) |
| GGGACTCATGCAACATATCATTGCCATCGATCGATCTCCGCGGAGTCACCTAGTGCAG | 11100 fluorescence intensity (a.u.) |
| CCATCCGTTATATATACTTTACATTACATATACTGCTTGTCGGAGTCACCTAGTGCAG | 11100 fluorescence intensity (a.u.) |
| ATTTAGCTCTCTCTCTCTCTCTCACCTGCTCCTACTTACACGGAGTCACCTAGTGCAG | 9470 fluorescence intensity (a.u.) |
| GTTGGGAAGGAAAGGGAGGGGTTGGTGCTCTCCTCCTCTTCGGAGTCACCTAGTGCAG | 9740 fluorescence intensity (a.u.) |
| CCGGTCCAAGCACAGCAGCTTCTCAACTTCTCCACGTTTTCGGAGTCACCTAGTGCAG | 9910 fluorescence intensity (a.u.) |
| GCATGACATAAATATTTTCATATTTGCACAAAATTTTTAACGGAGTCACCTAGTGCAG | 8890 fluorescence intensity (a.u.) |
| CACCACGCTCGCTCCATCGATTCCTTGTTCTAGTGTTTCTCGGAGTCACCTAGTGCAG | 15000 fluorescence intensity (a.u.) |
| CCGCCTCGCCGACCTCGGACCCCGGCCTCCATCCTCCTCGCGGAGTCACCTAGTGCAG | 9450 fluorescence intensity (a.u.) |
| AATCATCACCTCTACTAGCTAGCTATAGCTCTAGTTCTACCGGAGTCACCTAGTGCAG | 8910 fluorescence intensity (a.u.) |

Some of the entries so far, as tab-separated lines.
Sequence	binding signal
GAGGGGTTTCCGGATTTATGTGTTGAAATTGTTTTTTGTTCGGAGTCACCTAGTGCAG	8810 fluorescence intensity (a.u.)
AGCCTGGTGCCGTGATGTGCTGACGATGCTCCATGACGACCGGAGTCACCTAGTGCAG	8220 fluorescence intensity (a.u.)

As a short view, part of the list above:

| Sequence | binding signal |
| --- | --- |
| GTGCTAGACTTTCTTTAGAAATTTTGAGGTCTTTTTTATACGGAGTCACCTAGTGCAG | 9680 fluorescence intensity (a.u.) |
| GGGACTCATGCAACATATCATTGCCATCGATCGATCTCCGCGGAGTCACCTAGTGCAG | 11100 fluorescence intensity (a.u.) |

The listing continues.

| Sequence | binding signal |
| --- | --- |
| ATTACTGTACCGTGCGTCGATTCGCTTACCTCCTAATACACGGAGTCACCTAGTGCAG | 13800 fluorescence intensity (a.u.) |
| ATTTATCTCTCCATGGTTACTTGCAAGTTGCAACATCGCTCGGAGTCACCTAGTGCAG | 8960 fluorescence intensity (a.u.) |
| ATCCATGTTGCATTTTATCCTACTGGTACCGTTTCTTTTCCGGAGTCACCTAGTGCAG | 11600 fluorescence intensity (a.u.) |
| GCCTCAGGTTCGTTCCACCACGGCGCCGCCGCCGCCGATGCGGAGTCACCTAGTGCAG | 8110 fluorescence intensity (a.u.) |
| TCGATTCCTGCCCGTCCGATCCGCCCTCACGGCCTCACCGCGGAGTCACCTAGTGCAG | 10600 fluorescence intensity (a.u.) |
| GGCCCCTGTTCCGCGGTGCTTTTCCCCAGCCATCACGAGACGGAGTCACCTAGTGCAG | 11600 fluorescence intensity (a.u.) |
| AACAAACCCAGTACACCTATGAGATCTCACCTGCTAACAACGGAGTCACCTAGTGCAG | 10300 fluorescence intensity (a.u.) |
| AGTACATAACAATTTCCACTCCAGTTTGAGATATTTTTTACGGAGTCACCTAGTGCAG | 8610 fluorescence intensity (a.u.) |
| TGGTTGCTGCAGTCGGGTGGGTGTGTAGTAGACTCTGCGGCGGAGTCACCTAGTGCAG | 9260 fluorescence intensity (a.u.) |
| CCCCGCACTCCCGGAGACCCCGACCCAATACCGTCATTTCCGGAGTCACCTAGTGCAG | 8450 fluorescence intensity (a.u.) |
| TGGTGGCAGATCGGACAACGGGGAAGACGGTGGGGCGGGGCGGAGTCACCTAGTGCAG | 9690 fluorescence intensity (a.u.) |
| TATCTAAAGTATCTTTTATTTATTAATACTATCTCTTTGACGGAGTCACCTAGTGCAG | 8960 fluorescence intensity (a.u.) |
| AGGAGGGGAGAGACCTAACAGTGGGCCCCAACAATTTTTTCGGAGTCACCTAGTGCAG | 8580 fluorescence intensity (a.u.) |
| CTCCATCGTCTGTCAGTCCAATGCGAGCTACATACCGAGACGGAGTCACCTAGTGCAG | 9190 fluorescence intensity (a.u.) |
| GGTTGTGCATTATATTATGGAATGGAGGGAGTACTTATCACGGAGTCACCTAGTGCAG | 8840 fluorescence intensity (a.u.) |
| CTAGGCTCCTTTTTTTTTTACGAAAACAGTGTTGACTCCTCGGAGTCACCTAGTGCAG | 8370 fluorescence intensity (a.u.) |
| TCCTCTCTTCTTCTTCTTCTTCTTCTTCTTCTTCTTCTTCCGGAGTCACCTAGTGCAG | 8480 fluorescence intensity (a.u.) |
| CTTTTTTTTTTGTTGGGTGGCATTTTAGTATGTTTCTTTTCGGAGTCACCTAGTGCAG | 14800 fluorescence intensity (a.u.) |
| TTTTGCTACTCCTTCGTTCTCAGTATCCAAATTTAAATTTCGGAGTCACCTAGTGCAG | 9900 fluorescence intensity (a.u.) |
| GAATACTTGTCAAATCGCTCAGGATTTTACTGCGGGGCGGCGGAGTCACCTAGTGCAG | 8050 fluorescence intensity (a.u.) |
| TCTTCCTTTCCTTTCCTTTCCTTTCCTTGGCGGCCGGCCACGGAGTCACCTAGTGCAG | 10400 fluorescence intensity (a.u.) |

From article PMC7819943, “Rice protein-binding microarrays: a tool to detect cis-acting elements near promoter regions in rice”
